Biological target: T1, Bicoid (UniProt P09081 2-160, limits assumed)
T1 construct: Control bait expressed from vector pEG202; also called arbitrary bait Bicoid (in pEG202)
T1 sequence (looked up): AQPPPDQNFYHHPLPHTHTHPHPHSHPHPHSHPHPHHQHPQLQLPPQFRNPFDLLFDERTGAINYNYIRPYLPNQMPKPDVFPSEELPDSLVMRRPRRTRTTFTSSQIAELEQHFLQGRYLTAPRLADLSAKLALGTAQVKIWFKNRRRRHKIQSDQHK
Experiment: yeast two-hybrid (LEU2 and lacZ reporters), Bicoid bait in pEG202, prey in pJG4-5
Description: Figure 2: FIG. 2 sets forth results of the Experiment described in Example 1 herein. Briefly, EGY48 yeast cells containing a prey of Pti4, Pti5 or Pti6 (in pJG4–5), and a bait of Pto, pto or Bicoid (in pEG202) were grown on galactose Ura⁻His⁻Trp⁻X-Gal medium. The plates were incubated at 30° C. for three days and photographed. Four independent, representative colonies are shown for each bait/prey combination.
Yeast strains carrying the Pto bait and a prey of Pti4, Pti5 or Pti6 grew in the absence of leucine, indicative of the LEU2 reporter gene activation. When grown on X-Gal plates, these yeast cells were blue as a result of the lacZ reporter gene activation. As determined by the intensity of blue color, the strength of interaction of Pto with these three preys is in the order of Pti6>Pti4>Pti5.

binding result: no binding
B1: Pti4 (other)
chain: MDQQLPPTNFPVDFPVYRRNSSFSRLIPCLTEKWGDLPLKVDDSEDMVIYGLLKDALSVGWSPFNFTAGEVKSEPREEIESSPEFSPSPAGTTAAPAAETPKRRHYRGVRQRPWGKFAAEIRDPAKNGARVWLGTYETAEEAAIAYDKAAYRMRGSKAHLNFPHRIGLNEPEPFELRRKGRAIQGPASSSGNGSMKRRRKAVQKCDGEMASRSSVMQVGCQIEQLTGVHQL
notes: Tested as a yeast two-hybrid prey expressed from vector pJG4-5; also called prey of Pti4 (in pJG4-5)

Reference: patent US6653533 (PURDUE RESEARCH FOUNDATION, dated 1997)
